Measurements from publication PMC6520397.
Results are given in words; binding and its absence hold for the method and conditions named.

The chains behind the UniProt entries cited, without tags or fusion partners. Where a name states a change or a piece, a line headed by the entry shows the natural chain unless it says otherwise. A line that says so, or that is headed by a name, gives the form on record, which may keep a tag or linker.
BIR3 (241-356) C351S mutant (P98170, form named): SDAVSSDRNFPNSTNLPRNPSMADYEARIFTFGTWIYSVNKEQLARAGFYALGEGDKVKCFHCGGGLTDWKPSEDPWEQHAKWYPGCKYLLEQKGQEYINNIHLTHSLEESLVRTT

Tests used:
[1] = target: BIR3 (241-356) C351S mutant (UniProt P98170); assay: SEC; 0.5 mM BIR3 or BIR3 C351S mixed with one equivalent of Cu(I) as [Cu(CH3CN)4][PF6] or Cu(II)-VC (copper sulfate with ascorbic acid 1:9), 20 mM Bis-Tris pH 6.5, 30 min at room temperature; fractions run on SDS-PAGE; both purified
[2] = target: BIR3 (241-356) C351S mutant (UniProt P98170); assay: SEC; BIR3 or BIR3 C351S mixed with one equivalent of CuSO4 (Cu(II)), 20 mM Bis-Tris pH 6.5, 30 min at room temperature, supernatant on a gel-filtration column; fractions identified by MALDI-TOF and SDS-PAGE; 0.1 mM protein by the legend of Figure 3, 0.5 mM by the methods; both purified

Substance: BIR3 (241-356) C351S mutant (from UniProt P98170 241-356) (domain or fragment)
- binding [1]: no binding (tested: 0.5 mM)
- binding [2]: no binding (tested: 0.1 mM)
